PubChem BioAssay (NCATS)
The other results are listed elsewhere or left out. These are further read-outs of the screen, such as a control signal, another cell line or another target. No call is given for them. Most of these compounds were active or inconclusive in the main read-out, so they are no random draw. The note in brackets gives the kind of curve behind each potency; many fits are weak.

Assay: qHTS for identification of novel therapeutic agents for treatment of microphthalmiaassociated transcription factor (MiT) renal cell carcinoma (RCC) (AID 1963991)
Conditions: CellTiter-Glo, 48 h; for z-score: stronger effect = lower value
Excerpt: PI: Marston Linehan Ph.D.
Urologic Oncology Branch, Center for Cancer Research (CCR)
National Cancer Institute (NCI), National Institute of Health (NIH), Bethesda, Maryland
MiT-Renal Cell Carcinoma (RCC) is characterized by genomic translocations involving microphthalmia-associated transcription factor (MiT) family members TFE3, TFEB, or MITF. MiT-RCC represents a specific subtype of sporadic RCC that is predominantly seen in young patients and can present with heterogeneous histological features making diagnosis challenging. Moreover, the disease biology of this aggressive cancer is poorly understood and there is no accepted standard of care therapy for patients with advanced disease. Tumor-derived cell lines have been established from human TFE3-RCC providing useful models for preclinical studies. TFE3-RCC tumor derived cell lines and their tissues of origin were characterized by IHC and gene expression analyses. An unbiased high-throughput drug screen was performed to identify novel therapeutic agents for treatment of MiT-RCC. Potential therapeutic candidates were validated in in vitro and in vivo preclinical studies. Mechanistic assays were conducted to confirm the on-target effects of drugs. The results of a high-throughput small molecule drug screen utilizing three TFE3-RCC tumor-derived cell lines identified five classes of agents with potential pharmacological efficacy, including inhibitors of phosphoinositide-3-kinase (PI3K) and mechanistic target of rapamycin (mTOR), and several additional agents, including the transcription inhibitor Mithramycin A. Upregulation of the cell surface marker GPNMB, a specific MiT transcriptional target, was confirmed in TFE3-RCC and evaluated as a therapeutic target using the GPNMB-targeted antibody-drug conjugate CDX-011. […] The results of the high-throughput drug screen and validation studies in TFE3-RCC tumor-derived cell lines have provided in vitro and in vivo preclinical data supporting the efficacy of the PI3K/mTOR inhibitor.
SEQUENCE No. (e.g., 1, 2, 3, etc.); […] (e.g., Cells, Incubation, Reagent, etc.); VALUE; DESCRIPTION.
1; Cells; 3 uL; white, solid-bottom Grenier assay plate.
2; Compounds; 23 nL; Kalypsis pin-tool (Wako USA).
3; Incubation; 48 hr; 37 C, 5% CO2, 95% humidity.
4; Reagent; 3 uL; CellTiter-Glo reagent (Promega).
5; Incubation; 15 min; room temperature.
6; Detection; Luminescence; ViewLux plate reader (PerkinElmer).
NOTES (numbers refer to Sequence numbers above)
1. Quantitative high-throughput screening (qHTS) of 1912 pharmacologically defined small molecule compounds was conducted on three TFE3-fusion cell lines bearing three different fusion partners (UOK109, UOK124, UOK145). Briefly, 500 cells in complete growth media were plated into white, solid-bottom, 1536-well tissue culture treated plates (Grenier Cat. 789173-F) using a Multidrop Combi cassette dispenser.
2. Twenty-three nanoliter of 1912 pharmacologically defined small molecule compounds of the NCATS Mechanism Interrogation PlatE (MIPE) version 4.0 were added to each assay plate using a Pintool Dispenser (Wako) equipped with 1536 pin head.
3. Plates were covered with stainless steel gasketed lids and incubated for 48 hours at standard cell culture conditions.
4. Viability was assessed by adding 3uL of CellTiter-Glo detection reagent (Promega).
5. Plates were covered with gasket lids and incubated for 15 minutes at room temperature.
6. Luminescence was measured on a ViewLux plate reader (PerkinElmer). Post-screen data processing used DMSO controls as 100% viability and empty wells as 0% viability and dose response curve fitting was done for all 11 concentrations for each compound.

[1] = TFE3-RCC UOK109 viability, measured here: UOK109 Z-AUC
[2] = TFE3-RCC viability, measured here: UOK124 Z-AUC
[3] = TFE3-RCC viability, measured here: UOK145 Z-AUC
[4] = TFE3-RCC viability, measured here: UOK145 cell viability
[5] = TFE3-RCC viability, measured here: UOK124 cell viability

| Compound | z-score [1] | z-score [2] | z-score [3] | AC50 [4] | AC50 [5] |
| --- | --- | --- | --- | --- | --- |
| Cc1cc(C(=O)NOCCO)c(Nc2ccc(I)cc2F)n(C)c1=O | -2.35 | -0.323 | -0.584 | 18.7 µM [falling, partial curve] |  |
| O=C1CCCC2=C1C(c1[nH]ncc1Cl)N=C(Nc1nc3ccccc3o1)N2 (centres undefined) | 0.814 | 0.902 | 0.692 |  | 18.7 µM [falling, partial curve, poor fit] |
| CCCCCCCCc1ccc(CCC(N)(CO)CO)cc1 | 0.207 | -0.429 | 0.469 | 23.5 µM [falling, partial curve] | 16.6 µM [falling, partial curve] |
| CC(C)(OCc1nn(Cc2ccccc2)c2ccccc12)C(=O)O | 0.915 | 0.538 | 0.506 | 26.4 µM [falling, single point] |  |
| CCNC(=O)Nc1ccc2ncc(Nc3ccc(C)cc3)nc2n1 | -0.642 | 2.6 | 0.419 | 23.5 µM [falling, partial curve] | 23.5 µM [falling, partial curve] |
| CCCCCCNC(=O)n1cc(F)c(=O)[nH]c1=O | 0.417 | 0.954 | 0.333 | 11.8 µM [falling, partial curve] |  |
| CNC(=O)c1ccc(-c2cnc3ncc(Cc4ccc5ncccc5c4)n3n2)cc1F | -0.384 | 0.636 | -0.205 | 33.2 µM [falling, single point] |  |
| C[C@@H]1C[C@H]2[C@@H]3CCC4=CC(=O)C=C[C@]4(C)[C@@]3(Cl)[C@@H](O)C[C@]2(C)[C@@]1(OC(=O)c1ccco1)C(=O)CCl | -0.555 | 0.327 | 0.119 | 2.96 µM [falling, full curve] | 26.4 µM [falling, partial curve] |
| NC(=O)Cc1cccc(C(=O)c2ccccc2)c1N | 0.75 | 0.365 | 0.545 |  | 18.7 µM [falling, partial curve, poor fit] |
| O=C(Nc1ncc(SCCN2CCCC2)s1)[C@]1(c2ccc(S(=O)(=O)C3CC3)cc2)C[C@@H]1C1CCCCC1 | 0.219 | -0.342 | 0.364 | 26.4 µM [falling, single point] | 11.8 µM [falling, partial curve] |

Sorted by count of non-hydrogen atoms (high to low): 3 of the compounds above

| Compound | z-score [1] | z-score [2] | z-score [3] | AC50 [4] | AC50 [5] |
| --- | --- | --- | --- | --- | --- |
| CCNC(=O)Nc1ccc2ncc(Nc3ccc(C)cc3)nc2n1 | -0.642 | 2.6 | 0.419 | 23.5 µM [falling, partial curve] | 23.5 µM [falling, partial curve] |
| CCCCCCCCc1ccc(CCC(N)(CO)CO)cc1 | 0.207 | -0.429 | 0.469 | 23.5 µM [falling, partial curve] | 16.6 µM [falling, partial curve] |
| CCCCCCNC(=O)n1cc(F)c(=O)[nH]c1=O | 0.417 | 0.954 | 0.333 | 11.8 µM [falling, partial curve] |  |
